Data taken from PubChem BioAssay AID1159506, deposited by NCATS (2015).

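Luminescence from an EWS-FLI1 target-promoter (NR0B1) reporter, set against a CMV-promoter reporter, two days after silencing single genes in TC32 Ewing sarcoma cells. Each siRNA was applied at 20 nM. A z-score of the log NR0B1-over-CMV signal, less the median of siRNAs with the same seed; more negative means a stronger specific loss of the NR0B1 reporter.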

This is part of the screen; most of the strongest results are not listed here. Sequences are the guide (antisense) strand, without overhang.

{"strand": "AACUCCAUCGCCGUGUUGC", "target gene": "ZACN", "seed-corrected z-score": "0.4681"}
{"strand": "UAACUCUUAAGAGAUGAGC", "target gene": "C1orf146", "seed-corrected z-score": "-1.291"}
{"strand": "UUCUUUUGAUCUAUAACCC", "target gene": "OLA1", "seed-corrected z-score": "-1.007"}
{"strand": "UCAGGAAGUAGGCUAAGCU", "target gene": "DPH1", "seed-corrected z-score": "1.33"}
{"strand": "UUCCCUCCCAUUUAAGGUG", "target gene": "DIO3", "seed-corrected z-score": "-0.2717"}
{"strand": "UGUAGUCUGAUCGAAAUUG", "target gene": "GNAL", "seed-corrected z-score": "0.3245"}
{"strand": "AAACUUAUAACUUUUCUUG", "target gene": "CYP3A7", "seed-corrected z-score": "0.4958"}
{"strand": "UGUUUUCACACGAGGCCUU", "target gene": "LOC729966", "seed-corrected z-score": "-0.2032"}
{"strand": "AAGACUACGACAAGGAUCC", "target gene": "BCAS3", "seed-corrected z-score": "-0.1149"}
{"strand": "UUCAGUUAAAAUAUCAUCC", "target gene": "YTHDC1", "seed-corrected z-score": "0.8252"}
{"strand": "UUUGGUUUUCGAGACCUGG", "target gene": "EN2", "seed-corrected z-score": "0.5364"}
{"strand": "UUUGCUCCAACAUCUUGGC", "target gene": "IQCF6", "seed-corrected z-score": "0.253"}
{"strand": "UUCUCAUUCAAAUUGCUGA", "target gene": "PPP1R1B", "seed-corrected z-score": "-0.47"}
{"strand": "UUAGCAAUCGUAUCAACCC", "target gene": "AK9", "seed-corrected z-score": "-0.2617"}
{"strand": "AUAGCGACAAUCUUUUUCA", "target gene": "DSTN", "seed-corrected z-score": "0.9675"}
{"strand": "AUUAGUCCCAGCAAUGUAG", "target gene": "RRM1", "seed-corrected z-score": "0.9224"}
{"strand": "AGAUAAAUUAGGACAGGGC", "target gene": "CMTM7", "seed-corrected z-score": "-1.085"}
{"strand": "UAUCUGUUGAUGUUACGUC", "target gene": "SV2B", "seed-corrected z-score": "-0.3334"}
{"strand": "AUAUAAUCAGCAUAGAUUG", "target gene": "ZMPSTE24", "seed-corrected z-score": "0.6252"}
{"strand": "UGUUCGUCCAAGGACUCGC", "target gene": "CDC42EP4", "seed-corrected z-score": "-1.625"}
{"strand": "UCUUCUAUCUGCUUAUCCC", "target gene": "KAT7", "seed-corrected z-score": "-0.1128"}
{"strand": "UUGGAUAUUGGUGGUGCUG", "target gene": "RNASE4", "seed-corrected z-score": "-1.713"}
{"strand": "UUAAGAAAGAAGUAGAGCC", "target gene": "SPACA6", "seed-corrected z-score": "-0.1121"}
{"strand": "UUGCGUUCAAGGUCAAGAC", "target gene": "VIM", "seed-corrected z-score": "-0.01056"}
{"strand": "UUCUCCGAGAAUUUCAUCU", "target gene": "SSX6", "seed-corrected z-score": "0.7004"}
{"strand": "UUCUAAGUCAGCUUAAGGC", "target gene": "AKR7A2", "seed-corrected z-score": "-0.1389"}
{"strand": "AAUGUUAUUCCCAAAAACC", "target gene": "TSPAN5", "seed-corrected z-score": "0.6318"}
{"strand": "UCUGCAACCUACCCAGUGC", "target gene": "NT5C1A", "seed-corrected z-score": "0.4817"}
{"strand": "UGGAGUACUCUGAACAUGC", "target gene": "TRIML2", "seed-corrected z-score": "0.103"}
{"strand": "UUUCUUCCCAUUGGAGUCA", "target gene": "DHX33", "seed-corrected z-score": "-0.7631"}
{"strand": "UACAUAGCGAUCCACACUC", "target gene": "OPRL1", "seed-corrected z-score": "-0.3881"}
{"strand": "UGAUGAAGACGGACAAUGC", "target gene": "GLP1R", "seed-corrected z-score": "0.1057"}
{"strand": "UUAUUUCCACUGCUAUCCC", "target gene": "NUDT9", "seed-corrected z-score": "0.1144"}
{"strand": "UUUCUCGGAACUGUAUGCC", "target gene": "AGL", "seed-corrected z-score": "0.6704"}
{"strand": "AAGAUGUCAGUUGCAGCUC", "target gene": "PLTP", "seed-corrected z-score": "0.8336"}
{"strand": "UGAAACUUCAGGUAGGAGG", "target gene": "ST8SIA4", "seed-corrected z-score": "-0.8428"}
{"strand": "ACGGUUACCAUUAAAGUCU", "target gene": "FCN3", "seed-corrected z-score": "-0.3795"}
{"strand": "AUCUGGAUCAGAACGUGCC", "target gene": "ACADM", "seed-corrected z-score": "0.3681"}
{"strand": "AAUGCUCUUGGGAUGGUAC", "target gene": "FLJ45079", "seed-corrected z-score": "-0.4987"}
{"strand": "UUCCUUCAUUACCUCAUCC", "target gene": "DLEU1", "seed-corrected z-score": "-0.5523"}
{"strand": "AGAAAAAUUAGGCUGUUUG", "target gene": "KAAG1", "seed-corrected z-score": "0.1907"}
{"strand": "UAUAGUCUACGACAACUCC", "target gene": "NUP214", "seed-corrected z-score": "0.2562"}
{"strand": "UUUUUCUCGGUCAUAAGCC", "target gene": "ARHGAP18", "seed-corrected z-score": "0.9465"}
{"strand": "UACACGAUCCCGAACUGGC", "target gene": "CLEC3B", "seed-corrected z-score": "-0.5681"}
{"strand": "UGUUGAGUCUGUUCGGUCC", "target gene": "DCDC5", "seed-corrected z-score": "0.9396"}
{"strand": "AGCUUUACCACAACAUUGG", "target gene": "ERMP1", "seed-corrected z-score": "1.377"}
{"strand": "UUCGCUUUACACUCCAAAC", "target gene": "DDX59", "seed-corrected z-score": "-0.6369"}
{"strand": "UUCAGGAUCGUUCACAUAG", "target gene": "EYS", "seed-corrected z-score": "0.2228"}
{"strand": "UAUCAUGCAGGGAGUAUCC", "target gene": "GPR34", "seed-corrected z-score": "-1.629"}
{"strand": "UCUUCGGCAAAGUAAACCG", "target gene": "CSRP1", "seed-corrected z-score": "-0.3745"}
{"strand": "UCUCUAAAAACCUGGACUC", "target gene": "MAGEA11", "seed-corrected z-score": "0.2026"}
{"strand": "UUACUCUUGAGGGAAGCGG", "target gene": "RPL4", "seed-corrected z-score": "-0.4238"}

For reference, 6 entries once more:

strand	target gene	seed-corrected z-score
UAACUCUUAAGAGAUGAGC	C1orf146	-1.291
AAGAUGUCAGUUGCAGCUC	PLTP	0.8336
UGUUUUCACACGAGGCCUU	LOC729966	-0.2032
UCUCUAAAAACCUGGACUC	MAGEA11	0.2026
UUAGCAAUCGUAUCAACCC	AK9	-0.2617
UUUUUCUCGGUCAUAAGCC	ARHGAP18	0.9465